Test results from patent US12378320B2, “Methods for treating pancreatitis” (Cold Spring Harbor Laboratory, priority 2018, dated 2025).

B1: P80316 (protein, UniProt P80316 1-541, looked up)
chain: MASVGTLAFDEYGRPFLIIKDQDRKSRLMGLEALKSHIMAAKAVANTMRTSLGPNGLDKMMVDKDGDVTITNDGATILSMMDVDHQIAKLMVELSKSQDDEIGDGTTGVVVLAGALLEEAEQLLDRGIHPIRIADGYEQAARIAIQHLDKISDKVLVDINNPEPLIQTAKTTLGSKVINSCHRQMAEIAVNAVLTVADMERRDVDFELIKVEGKVGGRLEDTKLIKGVIVDKDFSHPQMPKKVVDAKIAILTCPFEPPKPKTKHKLDVMSVEDYKALQKYEKEKFEEMIKQIKETGANLAICQWGFDDEANHLLLQNGLPAVRWVGGPEIELIAIATGGRIVPRFSELTSEKLGFAGVVQEISFGTTKDKMLVIEKCKNSRAVTIFIRGGNKMIIEEAKRSLHDALCVIRNLIRDNRVVYGGGAAEISCALAVSQEADKCPTLEQYAMRAFADALEVIPMALSENSGMNPIQTMTEVRARQVKESNPALGIDCLHKGSNDMQYQHVIETLIGKKQQISLATQMVRMILKIDDIRKPGESEE
modifications: full-length
B2: P22599 (protein, UniProt P22599 1-413, looked up)
chain: MTPSISWGLLLLAGLCCMVPSFLAEDVQETDTSQKDQSPASHEIATNLGDFAISLYRELVHQSNTSNIFFSPVSIATAFAMLSLGSKGDTHTQILEGLQFNLTQTSEADIHKSFQHLLQTLNRPDSELQLSTGNGLFVNNDLKLVEKFLEEAKNHYQAEVFSVNFAESEEAKKVINDFVEKGTQGKIVEAVKELDQDTVFALANYILFKGKWKKPFDPENTEEAEFHVDKSTTVKVPMMMLSGMLDVHHCSILSSWVLLMDYAGNASAVFLLPEDGKMQHLEQTLNKELISKILLNRRRRLVQIHIPRLSISGDYNLKTLMSPLGITRIFNNGADLSGITEENAPLKLSKAVHKAVLTIDETGTEAAAATVFEAVPMSMPPILRFDHPFLFIIFEEHTQSPIFVGKVVDPTHK
modifications: full-length
B3: P80315 (protein, UniProt P80315 1-539, looked up)
chain: MPENVASRSGAPTAGPGSRGKSAYQDRDKPAQIRFSNISAAKAVADAIRTSLGPKGMDKMIQDGKGDVTITNDGATILKQMQVLHPAARMLVELSKAQDIEAGDGTTSVVIIAGSLLDSCTKLLQKGIHPTIISESFQKALEKGLEILTDMSRPVQLSDRETLLNSATTSLNSKVVSQYSSLLSPMSVNAVMKVIDPATATSVDLRDIKIVKKLGGTIDDCELVEGLVLTQKVANSGITRVEKAKIGLIQFCLSAPKTDMDNQIVVSDYAQMDRVLREERAYILNLVKQIKKTGCNVLLIQKSILRDALSDLALHFLNKMKIMVVKDVEREDIEFICKTIGTKPVAHIDQFTADMLGSAELAEEVSLNGSGKLFKITGCTSPGKTVTIVVRGSNKLVIEEAERSIHDALCVIRCLVKKRALIAGGGAPEIELALRLTEYSRTLSGMESYCVRAFADAMEVIPSTLAENAGLNPISTVTELRNRHAQGEKTTGINVRKGGISNILEEMVVQPLLVSVSALTLATETVRSILKIDDVVNTR
modifications: full-length
B4: P01637 (protein, UniProt P01637 1-128, looked up)
chain: MRTPAQFLGILLLWFPGIKCDIKMTQSPSSMYASLGERVTISCKASQDINSYLTWFQQKPGKSPKTLLYRANRLVDGVPSRFSGSGSGQDFSLTISSLEYEDMGIYYCLQYDEFPLTFGAGTKLELKR
modifications: full-length
B5: P01670 (protein, UniProt P01670 1-111, looked up)
chain: DIVLTQSPASLAVSLGQRATISCRASKSVSTSGYSYMHWYQQKPGQPPKLLIYLASNLESGVPARFSGSGSGTDFTLNIHPVEEEDAATYYCQHSRELPRTFGGGTKLEIK
modifications: full-length
B6: Q00897 (protein, UniProt Q00897 1-413, looked up)
chain: MTPSISWSLLLLAGLCCLVPSFLAEDVQETDTSQKDQSPASHEIATNLGDFALRLYRELVHQSNTSNIFFSPVSIATAFAMLSLGSKGDTHTQILEGLQFNLTQTSEADIHKSFQHLLQTLNRPDSELQLSTGNGLFVNNDLKLVEKFLEEAKNHYQAEVFSVNFAESEEAKKVINDFVEKGTQGKIVEAVKKLDQDTVFALANYILFKGKWKQPFDPENTEEAEFHVDESTTVKVPMMTLSGMLDVHHCSMLSSWVLLMDYAGNTTAVFLLPDDGKMQHLEQTLNKELISQFLLNRRRSDAQIHIPRLSISGNYNLKTLMSPLGITRIFNNGADLSGITEENAPLKLSKAVHKAVLTIDETGTEAAAATVLQVATYSMPPIVRFDHPFLFIIFEEHTQSPIFVGKVVDPTHK
modifications: full-length
B7: P01644 (protein, UniProt P01644 1-108, looked up)
chain: DIQMTQTTSSLSASLGDRVTISCRASQDISNYLNWYQQKPDGTVKLLIYYTSRLHSGVPSRFSGSGSGTDYSLTISNLEQEDIATYFCQQGNSLPRTFGGGTKLEIKR
modifications: full-length
B8: Q9ET01 (protein, UniProt Q9ET01 1-850, looked up)
chain: MAKPLTDQEKRRQISIRGIVGVENVAELKKGFNRHLHFTLVKDRNVATPRDYYFALAHTVRDHLVGRWIRTQQHYYDKCPKRVYYLSLEFYMGRTLQNTMINLGLQNACDEAIYQLGLDMEELEEIEEDAGLGNGGLGRLAACFLDSMATLGLAAYGYGIRYEYGIFNQKIREGWQVEEADDWLRHGNPWEKARPEFMLPVHFYGRVEHTQTGTKWVDTQVVLALPYDTPVPGYMNNTVNTMRLWSARAPNDFNLQDFNVGDYIQAVLDRNLAENISRVLYPNDNFFEGKELRLKQEYFVVAATLQDVIRRFKASKFGSKDGMGTVFDAFPDQVAIQLNDTHPALAIPELMRIFVDIEKLPWAKAWEITKKTFAYTNHTVLPEALERWPVELVEKLLPRHLEIIYEINQKHLDRIVALFPKDISRMRRMSLIEEEGGKRINMAHLCIVGCHAVNGVAKIHSDIVKTQVFKDFSELEPDKFQNKTNGITPRRWLLLCNPGLADLIAEKIGEDYVKDLSQLTKLHSFVSDDIFLREIAKVKQENKLKFSQFLEKEYKVKINPSSMFDVHVKRIHEYKRQLLNCLHVITMYNRIKKDPKKFFVPRTVIIGGKAAPGYHMAKMIIKLITSVAEVVNNDPMVGSKLKVIFLENYRVSLAEKVIPATDLSEQISTAGTEASGTGNMKFMLNGALTIGTMDGANVEMAEEAGEENLFIFGMRVDDVAALDKKGYEAKEYYEALPELKLVIDQIDNGFFSPNQPDLFKDIINMLFYHDRFKVFADYEAYVKCQEKVSQLYMNQKAWNTMVLKNIAASGKFSSDRTIKEYAKDIWNMEPSDLKISLSNESSNGVSANGK
modifications: full-length
B9: Q02053 (protein, UniProt Q02053 1-1058, looked up)
chain: MSSSPLSKKRRVSGPDPKPGSNCSPAQSALSEVSSVPTNGMAKNGSEADIDESLYSRQLYVLGHEAMKMLQTSSVLVSGLRGLGVEIAKNIILGGVKAVTLHDQGTTQWADLSSQFYLREEDIGKNRAEVSQPRLAELNSYVPVTAYTGPLVEDFLSSFQVVVLTNSPLEAQLRVGEFCHSRGIKLVVADTRGLFGQLFCDFGEEMVLTDSNGEQPLSAMVSMVTKDNPGVVTCLDEARHGFETGDFVSFSEVQGMIQLNGCQPMEIKVLGPYTFSICDTSNFSDYIRGGIVSQVKVPKKISFKSLPASLVEPDFVMTDFAKYSRPAQLHIGFQALHQFCALHNQPPRPRNEEDATELVGLAQAVNARSPPSVKQNSLDEDLIRKLAYVAAGDLAPINAFIGGLAAQEVMKACSGKFMPIMQWLYFDALECLPEDKEALTEEKCLPRQNRYDGQVAVFGSDFQEKLSKQKYFLVGAGAIGCELLKNFAMIGLGCGEGGEVVVTDMDTIEKSNLNRQFLFRPWDVTKLKSDTAAAAVRQMNPYIQVTSHQNRVGPDTERIYDDDFFQNLDGVANALDNIDARMYMDRRCVYYRKPLLESGTLGTKGNVQVVIPFLTESYSSSQDPPEKSIPICTLKNFPNAIEHTLQWARDEFEGLFKQPAENVNQYLTDSKFVERTLRLAGTQPLEVLEAVQRSLVLQRPQTWGDCVTWACHHWHTQYCNNIRQLLHNFPPDQLTSSGAPFWSGPKRCPHPLTFDVNNTLHLDYVMAAANLFAQTYGLTGSQDRAAVASLLQSVQVPEFTPKSGVKIHVSDQELQSANASVDDSRLEELKATLPSPDKLPGFKMYPIDFEKDDDSNFHMDFIVAASNLRAENYDISPADRHKSKLIAGKIIPAIATTTAAVVGLVCLELYKVVQGHQQLDSYKNGFLNLALPFFGFSEPLAAPRHQYYNQEWTLWDRFEVQGLQPNGEEMTLKQFLDYFKTEHKLEITMLSQGVSMLYSFFMPAAKLKERLDQPMTEIVSRVSKRKLGRHVRALVLELCCNDESGEDVEVPYVRYTIR
modifications: full-length
B10: P01659 (protein, UniProt P01659 1-112, looked up)
chain: DIVLTQSPASLAVSLGQRATISCRASZSVNWYGNSFMZWYZZKPGZPPKLLIYRASNLZSGIPARFSGSGSRTBFTLTIBPVZABDVATYFCZZSBZAPWTFGSGTKLEIKR
modifications: full-length
B11: Q9D8N0 (protein, UniProt Q9D8N0 1-437, looked up)
chain: MAAGTLYTYPENWRAFKALIAAQYSGAQVRVLSAPPHFHFGQTNRTPEFLRKFPAGKVPAFEGDDGFCVFESNAIAYYVSNEELRGSTPEAAAQVVQWVSFADSDIVPPASTWVFPTLGIMHHNKQATENAKEEVKRILGLLDTHLKTRTFLVGERVTLADITVVCTLLWLYKQVLEPSFRQAFPNTNRWFLTCINQPQFRAILGEVKLCEKMAQFDAKKFAESQPKKDTPRKEKGSREEKQKPQAERKEEKKAAAPAPEEEMDECEQALAAEPKAKDPFAHLPKSTFVLDEFKRKYSNEDTLSVALPYFWEHFDKDGWSLWYAEYRFPEELTQTFMSCNLITGMFQRLDKLRKNAFASVILFGTNNSSSISGVWVFRGQELAFPLSPDWQVDYESYTWRKLDPGSEETQTLVREYFSWEGTFQHVGKAVNQGKIFK
modifications: full-length

Test system: CA19-9 modified proteins
Assay: CA19-9 IP/MS (iTRAQ) of organoid conditioned media after Dox treatment
Parameters: species or system mouse
Settings: CA19-9 IP/MS relative abundance; A217 (genetic negative) organoid conditioned media, 0H (before treatment), IP with NS19-9; reference channel = 1

Molecule | 17 0H NS19
B1 | 1
B2 | 1
B3 | 1
B4 | 1
B5 | 1
B6 | 1
B7 | 1
B8 | 1
B9 | 1
B10 | 1
B11 | 1

Same assay, conditions: CA19-9 IP/MS relative abundance; A217 (genetic negative) organoid conditioned media, after 8 hours, IP with 5B1

Molecule | 17 8H 5B1
B1 | 2.923
B2 | 0.39
B3 | 2.546
B4 | 0.158
B5 | 0.095
B6 | 0.397
B7 | 0.072
B8 | 2.313
B9 | 3.389
B10 | 0.746
B11 | 3.944

Same assay, conditions: CA19-9 IP/MS relative abundance; A217 (genetic negative) organoid conditioned media, after 8 hours, IP with NS19-9

Molecule | 17 8H NS19
B1 | 0.44
B2 | 1.003
B3 | 0.596
B4 | 0.661
B5 | 1.113
B6 | 1.015
B7 | 1.128
B8 | 0.651
B9 | 0.563
B10 | 0.711
B11 | 0.711

Same assay, conditions: CA19-9 IP/MS relative abundance; A220 (C;R^LSL;F) organoid conditioned media, 0H (before treatment), IP with 5B1

Molecule | 20 0H 5B1
B1 | 2.631
B2 | 0.277
B3 | 2.235
B4 | 0.133
B5 | 0.066
B6 | 0.282
B7 | 0.045
B8 | 1.898
B9 | 2.73
B10 | 0.652
B11 | 3.488
